The text below walks through data of PMC10272126.

Amino acid sequences for entries named in this document (tags omitted). A change or cut given only in a name is not applied to a line headed by its entry.
UniProt Q8WXI2: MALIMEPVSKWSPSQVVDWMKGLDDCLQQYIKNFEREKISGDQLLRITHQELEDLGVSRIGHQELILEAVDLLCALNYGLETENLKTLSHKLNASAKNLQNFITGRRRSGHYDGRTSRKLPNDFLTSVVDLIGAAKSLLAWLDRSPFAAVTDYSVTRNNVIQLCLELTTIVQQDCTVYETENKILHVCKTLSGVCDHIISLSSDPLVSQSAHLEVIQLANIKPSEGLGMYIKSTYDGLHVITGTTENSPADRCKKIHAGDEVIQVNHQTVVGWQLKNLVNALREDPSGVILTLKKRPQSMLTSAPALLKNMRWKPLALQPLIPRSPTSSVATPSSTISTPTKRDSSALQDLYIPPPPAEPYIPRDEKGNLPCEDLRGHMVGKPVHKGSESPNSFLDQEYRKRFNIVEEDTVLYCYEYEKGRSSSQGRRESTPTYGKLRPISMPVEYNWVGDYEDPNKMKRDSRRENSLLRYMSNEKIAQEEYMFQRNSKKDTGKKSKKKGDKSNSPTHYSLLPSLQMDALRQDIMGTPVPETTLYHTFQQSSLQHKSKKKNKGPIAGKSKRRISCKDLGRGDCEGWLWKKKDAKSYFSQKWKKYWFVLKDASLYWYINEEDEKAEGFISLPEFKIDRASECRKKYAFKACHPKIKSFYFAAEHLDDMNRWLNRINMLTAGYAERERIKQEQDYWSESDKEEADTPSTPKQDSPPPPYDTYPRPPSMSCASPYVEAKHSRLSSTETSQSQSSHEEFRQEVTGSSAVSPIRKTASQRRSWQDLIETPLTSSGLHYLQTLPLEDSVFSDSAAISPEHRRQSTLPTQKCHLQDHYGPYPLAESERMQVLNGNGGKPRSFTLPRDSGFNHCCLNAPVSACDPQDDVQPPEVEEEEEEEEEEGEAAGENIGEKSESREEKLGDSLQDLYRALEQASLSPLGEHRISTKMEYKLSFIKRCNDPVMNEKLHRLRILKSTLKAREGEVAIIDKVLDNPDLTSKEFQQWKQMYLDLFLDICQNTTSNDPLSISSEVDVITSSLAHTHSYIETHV
UniProt Q14160: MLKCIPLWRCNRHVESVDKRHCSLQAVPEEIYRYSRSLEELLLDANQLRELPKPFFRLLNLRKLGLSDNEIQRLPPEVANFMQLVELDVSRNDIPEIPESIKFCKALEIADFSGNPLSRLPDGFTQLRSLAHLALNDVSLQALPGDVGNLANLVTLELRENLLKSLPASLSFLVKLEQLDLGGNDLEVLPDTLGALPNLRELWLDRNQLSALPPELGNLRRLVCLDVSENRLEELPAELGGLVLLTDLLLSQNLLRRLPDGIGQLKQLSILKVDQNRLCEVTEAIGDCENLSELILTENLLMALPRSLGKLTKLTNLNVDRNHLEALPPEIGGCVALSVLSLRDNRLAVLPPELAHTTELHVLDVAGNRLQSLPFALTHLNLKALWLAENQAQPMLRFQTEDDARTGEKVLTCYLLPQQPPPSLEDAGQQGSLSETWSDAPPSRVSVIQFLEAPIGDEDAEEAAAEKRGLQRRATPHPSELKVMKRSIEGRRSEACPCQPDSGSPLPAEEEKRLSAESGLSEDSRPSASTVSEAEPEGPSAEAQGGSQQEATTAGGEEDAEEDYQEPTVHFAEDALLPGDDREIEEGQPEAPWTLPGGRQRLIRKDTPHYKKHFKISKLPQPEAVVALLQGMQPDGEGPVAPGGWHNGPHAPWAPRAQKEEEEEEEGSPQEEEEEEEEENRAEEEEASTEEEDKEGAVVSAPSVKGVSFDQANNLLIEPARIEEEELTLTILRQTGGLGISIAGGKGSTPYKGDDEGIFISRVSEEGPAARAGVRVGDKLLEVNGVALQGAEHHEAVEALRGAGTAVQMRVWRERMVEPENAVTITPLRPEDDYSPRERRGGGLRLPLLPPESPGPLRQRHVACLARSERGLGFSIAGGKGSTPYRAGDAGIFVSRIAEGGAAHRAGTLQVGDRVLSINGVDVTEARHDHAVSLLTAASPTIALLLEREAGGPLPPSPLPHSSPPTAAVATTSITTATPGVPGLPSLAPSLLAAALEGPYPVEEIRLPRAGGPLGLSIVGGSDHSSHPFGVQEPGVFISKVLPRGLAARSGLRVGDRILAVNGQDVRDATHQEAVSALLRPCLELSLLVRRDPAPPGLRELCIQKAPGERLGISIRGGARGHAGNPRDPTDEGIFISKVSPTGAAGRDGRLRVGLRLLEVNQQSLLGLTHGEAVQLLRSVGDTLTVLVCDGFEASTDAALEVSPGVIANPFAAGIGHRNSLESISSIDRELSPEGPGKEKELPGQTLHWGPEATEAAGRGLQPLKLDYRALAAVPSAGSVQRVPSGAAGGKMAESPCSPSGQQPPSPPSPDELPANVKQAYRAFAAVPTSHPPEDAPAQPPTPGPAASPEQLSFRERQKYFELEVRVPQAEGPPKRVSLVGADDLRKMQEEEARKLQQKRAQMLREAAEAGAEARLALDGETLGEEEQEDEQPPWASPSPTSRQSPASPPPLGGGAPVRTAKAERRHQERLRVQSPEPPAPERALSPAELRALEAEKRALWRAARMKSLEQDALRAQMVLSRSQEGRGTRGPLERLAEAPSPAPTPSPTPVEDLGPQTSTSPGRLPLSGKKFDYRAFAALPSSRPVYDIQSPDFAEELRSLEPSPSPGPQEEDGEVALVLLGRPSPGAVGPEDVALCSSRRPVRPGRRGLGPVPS

The assay has as its target GFP-CNK2A_ΔPBM (human) (UniProt Q8WXI2). In words: co-IP; U2OS cells expressing GFP-CNK2A (WT or mutant); immunoblot of MAP4K4, CYTH1, CYTH2, CYTH3 or SCRIB in the precipitate. A general note: In western blotting, separated proteins are transferred to a membrane and probed.

Results are given in words; binding and its absence hold for the method and conditions named. Binding seen in cells or lysates may run through a third protein.

For the substance SCRIB (from UniProt Q14160 1-1655), the binding result is on record as “no binding”.
